According to paper PMC10750195:
No constants are given. Whether binding was seen depends on the method and setting. Binding seen in cells or lysates may run through a third protein. Some binding calls cover weakened binding; strength is not graded here. One block for each molecule: values may come before it.

Legend:
[1] = target: T1, vesicle-associated membrane protein 8 (human (endogenous in A2780 and OV90)) (UniProt Q9BV40); assay: proximity ligation; Duolink PLA in A2780 and OV90 cells, mouse anti-VAMP8 and rabbit anti-STX17; FASN knockout (siRNA-silenced) group treated with rapamycin
T1 sequence: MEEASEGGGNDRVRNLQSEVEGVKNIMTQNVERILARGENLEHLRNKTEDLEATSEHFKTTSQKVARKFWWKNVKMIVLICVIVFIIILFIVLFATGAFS

[2] = target: T2, syntaxin 17 (human (endogenous in A2780 and OV90)), P56962; assay: co-IP; endogenous proteins in A2780 and OV90 cell lysates (strong RIPA lysis); IP with STX17 antibody or VAMP8 antibody, protein A/G agarose beads, IgG as negative control; cells with or without rapamycin (1 uM, 6 h), FASN normal or silenced; conditions: remark: other sources report otherwise
T2 chain: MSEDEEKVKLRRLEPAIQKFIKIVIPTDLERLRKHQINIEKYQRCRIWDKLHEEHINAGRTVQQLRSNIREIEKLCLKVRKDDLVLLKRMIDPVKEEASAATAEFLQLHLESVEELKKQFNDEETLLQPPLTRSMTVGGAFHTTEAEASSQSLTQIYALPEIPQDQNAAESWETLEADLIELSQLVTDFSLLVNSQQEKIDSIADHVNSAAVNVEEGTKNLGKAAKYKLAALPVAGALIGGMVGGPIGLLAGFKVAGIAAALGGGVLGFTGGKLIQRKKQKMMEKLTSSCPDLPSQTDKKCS

[3] = target: T3, vesicle-associated membrane protein 8 (human (endogenous in A2780 and OV90)), Q9BV40; assay: as above; conditions: remark: other sources report otherwise
T3 chain: T1 sequence

[4] = target: T3, vesicle-associated membrane protein 8 …; assay: proximity ligation; Duolink PLA in A2780 and OV90 cells, mouse anti-VAMP8 and rabbit anti-STX17; FASN wild-type group treated with rapamycin; conditions: remark: other sources report otherwise

binding [1]: binds weakly
Molecule: syntaxin 17 (from UniProt P56962 1-302)

binding [2]: binds
B1: vesicle-associated membrane protein 8, Q9BV40 1-100 (protein)
chain: T1 sequence

binding [3]: binds
binding [4]: binds
B2: syntaxin 17, P56962 1-302 (protein)
chain: T2 chain
